Experimental data as given in US20120065170A1, “Antimicrobial Cyclocarbonyl Heterocyclic Compounds For Treatment Of Bacterial Infections” (priority 2010, published 2012).

Test system: reticulocytes
Assay: 5-days mouse sub-acute toxicity test (myelosuppression, reticulocyte count)
Format: in vivo
Details: for ratio of reticulocyte count (Table 5) divided by MIC90 against S. aureus (Table 1): toxicity versus activity balance
Description: The potential of representative compounds of this invention for myelosuppression has been evaluated in a 5-days mouse sub-acute toxicity test. For comparison purposes, Reference Compound 14 (Example 143 of publication US 2003/0166620) and Reference Compound 15 (TR-700 or torezolid; publications PCT WO2005/058886 and PCT WO2010/042887) have been included. The compounds were dosed to mice at 37.5 mg/kg/day on a twice-daily schedule. On day 5, blood was harvested for hematology testing. The toxicity was evaluated based on the reduction in the number of reticulocytes, previously described as the key marker for myelosuppression signs in pre-clinical testing of oxazolidinones, including linezolid. Thus, a higher degree of a reduction in the reticulocyte count is indicative of an elevated toxicity, while a lower drop in the reticulocyte count indicates a reduced propensity to the myelosuppression effect on the blood cells.

Structure (SMILES) | ratio of reticulocyte count (Table 5) divided by MIC90 against S. aureus (Table 1) | fold difference of reticulocyte count/MIC90 ratio over Reference Compound 15 (Example 1 versus Reference Compound 15) [fold]
Cn1nnc(-c2ccc(-c3ccc(N4C[C@H](CO)OC4=O)cc3F)cn2)n1 [Ref. Cpd. 15, (5R)-3-[3-fluoro-4-[6-(2-methyltetrazol-5-yl)-3-pyridyl]phenyl]-5-(hydroxymethyl)oxazolidin-2-one] | 76.4 | 
O=C1O[C@@H](CO)CN1c1ccc(-c2ccc(N3CCOC3=O)nc2)c(F)c1 [Example 1] | 1020 | ~13
